This is one part of the list.
Tests used:
Experiment in all cases: log2 fold change, soluble protein after heating vs DMSO (PISA); higher = thermal stabilisation; K562 lysate, 10 uM; active = over 0.2 and 3.5 SD of the protein, either way, in both replicates (recomputed)
[1] = compound: C#Cc1cccc(Nc2ncnc3cc(OCCOC)c(OCCOC)cc23)c1 [erlotinib]
Method in brief: (§1)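 Following dounce homogenisation of K562 pellets in PBS pH 7.4 with 1 mM MgCl2, crude extract at 1 mg/mL protein was incubated for 30 min with 10 μM compound. Aliquots were then heated for 3 min over 48°C-58°C and pooled, NP-40 was added to 0.5% at 4°C, and soluble protein was recovered as the supernatant at 21,000xg for 90 min. Channel-sum-equalised TMTpro 16plex LC-MS/MS quantified this protein. Each value, from duplicates, is a log-two fold change in thermal stability relative to solvent controls.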

Protein sequences, listed by entry. Tags and fused reporters are not part of them. Lines headed by an entry give the natural chain unless they say otherwise; changes in a name come on top.
UniProt Q9NP71: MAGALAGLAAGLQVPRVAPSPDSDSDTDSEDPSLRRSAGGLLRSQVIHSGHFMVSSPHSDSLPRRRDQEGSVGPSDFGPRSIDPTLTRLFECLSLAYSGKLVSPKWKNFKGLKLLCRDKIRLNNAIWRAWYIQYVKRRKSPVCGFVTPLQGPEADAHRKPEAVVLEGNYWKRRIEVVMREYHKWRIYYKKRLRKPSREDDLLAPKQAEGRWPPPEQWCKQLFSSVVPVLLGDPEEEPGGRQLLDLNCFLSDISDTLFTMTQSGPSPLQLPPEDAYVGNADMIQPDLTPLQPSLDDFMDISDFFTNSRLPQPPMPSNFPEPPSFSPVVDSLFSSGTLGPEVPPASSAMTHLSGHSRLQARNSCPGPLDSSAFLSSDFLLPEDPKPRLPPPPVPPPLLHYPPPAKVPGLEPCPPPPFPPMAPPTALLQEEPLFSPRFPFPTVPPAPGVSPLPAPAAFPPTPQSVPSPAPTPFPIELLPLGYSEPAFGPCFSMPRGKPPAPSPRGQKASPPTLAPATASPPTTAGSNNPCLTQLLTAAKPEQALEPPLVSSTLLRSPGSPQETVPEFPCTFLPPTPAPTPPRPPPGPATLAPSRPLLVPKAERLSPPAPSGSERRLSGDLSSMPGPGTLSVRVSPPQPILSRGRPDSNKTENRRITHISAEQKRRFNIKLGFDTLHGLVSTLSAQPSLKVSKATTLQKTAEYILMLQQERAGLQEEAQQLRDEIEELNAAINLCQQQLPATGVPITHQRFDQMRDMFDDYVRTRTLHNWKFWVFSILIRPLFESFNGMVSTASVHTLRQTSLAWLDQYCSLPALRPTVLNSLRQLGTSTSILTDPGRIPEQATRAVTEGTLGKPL
UniProt Q4G0A6: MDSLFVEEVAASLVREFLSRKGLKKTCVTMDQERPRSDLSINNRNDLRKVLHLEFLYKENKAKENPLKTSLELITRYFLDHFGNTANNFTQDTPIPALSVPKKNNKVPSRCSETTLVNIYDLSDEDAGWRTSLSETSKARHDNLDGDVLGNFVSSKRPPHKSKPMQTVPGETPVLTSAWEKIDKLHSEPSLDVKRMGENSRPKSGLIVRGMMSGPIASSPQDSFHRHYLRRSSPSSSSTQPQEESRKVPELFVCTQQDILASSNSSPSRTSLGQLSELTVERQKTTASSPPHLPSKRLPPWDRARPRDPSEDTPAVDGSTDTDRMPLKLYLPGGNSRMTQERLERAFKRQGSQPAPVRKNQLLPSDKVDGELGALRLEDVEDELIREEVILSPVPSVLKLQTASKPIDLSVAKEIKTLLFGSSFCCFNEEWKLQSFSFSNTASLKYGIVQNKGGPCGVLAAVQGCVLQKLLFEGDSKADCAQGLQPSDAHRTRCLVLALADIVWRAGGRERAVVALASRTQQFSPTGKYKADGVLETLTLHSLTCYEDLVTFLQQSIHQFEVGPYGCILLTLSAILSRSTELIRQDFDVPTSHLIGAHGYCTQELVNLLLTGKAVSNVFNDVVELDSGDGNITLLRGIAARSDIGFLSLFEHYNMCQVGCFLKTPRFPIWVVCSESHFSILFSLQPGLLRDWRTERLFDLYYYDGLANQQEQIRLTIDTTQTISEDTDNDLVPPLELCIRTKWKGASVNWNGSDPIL
UniProt Q9Y4U1: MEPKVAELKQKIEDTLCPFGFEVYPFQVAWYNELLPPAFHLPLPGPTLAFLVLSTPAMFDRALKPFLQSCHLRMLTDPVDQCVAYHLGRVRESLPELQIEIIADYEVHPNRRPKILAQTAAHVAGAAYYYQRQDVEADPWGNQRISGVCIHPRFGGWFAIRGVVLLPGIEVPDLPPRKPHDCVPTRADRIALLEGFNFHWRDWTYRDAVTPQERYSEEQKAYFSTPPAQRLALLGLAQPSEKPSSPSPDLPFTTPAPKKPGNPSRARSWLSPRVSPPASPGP
UniProt Q99550: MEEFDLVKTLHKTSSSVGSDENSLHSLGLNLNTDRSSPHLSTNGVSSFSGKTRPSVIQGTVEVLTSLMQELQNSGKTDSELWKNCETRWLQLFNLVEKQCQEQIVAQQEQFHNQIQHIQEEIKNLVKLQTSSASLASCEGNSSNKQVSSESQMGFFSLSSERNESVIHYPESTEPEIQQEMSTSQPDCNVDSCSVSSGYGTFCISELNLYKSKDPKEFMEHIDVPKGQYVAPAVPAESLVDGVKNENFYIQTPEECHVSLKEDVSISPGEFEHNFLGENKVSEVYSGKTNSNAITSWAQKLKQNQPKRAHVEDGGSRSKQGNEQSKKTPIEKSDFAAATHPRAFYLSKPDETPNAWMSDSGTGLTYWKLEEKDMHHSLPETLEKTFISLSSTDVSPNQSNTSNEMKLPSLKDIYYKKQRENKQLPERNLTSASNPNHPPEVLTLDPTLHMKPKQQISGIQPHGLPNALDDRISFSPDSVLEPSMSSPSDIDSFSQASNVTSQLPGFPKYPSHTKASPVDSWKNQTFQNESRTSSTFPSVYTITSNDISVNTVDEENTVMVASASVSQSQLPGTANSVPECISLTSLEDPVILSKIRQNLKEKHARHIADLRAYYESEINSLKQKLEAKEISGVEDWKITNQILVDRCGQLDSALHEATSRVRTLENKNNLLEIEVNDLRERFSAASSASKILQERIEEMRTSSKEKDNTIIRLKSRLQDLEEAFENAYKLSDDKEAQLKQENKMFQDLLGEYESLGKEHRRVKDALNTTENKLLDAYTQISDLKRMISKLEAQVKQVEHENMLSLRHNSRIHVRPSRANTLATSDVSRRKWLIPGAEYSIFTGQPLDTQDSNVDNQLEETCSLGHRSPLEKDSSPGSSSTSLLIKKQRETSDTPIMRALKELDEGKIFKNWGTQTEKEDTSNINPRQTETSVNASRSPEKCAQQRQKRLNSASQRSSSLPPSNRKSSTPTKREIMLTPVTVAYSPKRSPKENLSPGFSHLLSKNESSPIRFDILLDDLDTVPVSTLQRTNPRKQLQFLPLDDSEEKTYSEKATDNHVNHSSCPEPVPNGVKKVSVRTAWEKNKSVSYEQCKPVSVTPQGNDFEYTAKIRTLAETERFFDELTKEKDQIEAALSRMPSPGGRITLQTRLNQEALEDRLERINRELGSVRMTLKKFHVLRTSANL
UniProt Q7L4E1: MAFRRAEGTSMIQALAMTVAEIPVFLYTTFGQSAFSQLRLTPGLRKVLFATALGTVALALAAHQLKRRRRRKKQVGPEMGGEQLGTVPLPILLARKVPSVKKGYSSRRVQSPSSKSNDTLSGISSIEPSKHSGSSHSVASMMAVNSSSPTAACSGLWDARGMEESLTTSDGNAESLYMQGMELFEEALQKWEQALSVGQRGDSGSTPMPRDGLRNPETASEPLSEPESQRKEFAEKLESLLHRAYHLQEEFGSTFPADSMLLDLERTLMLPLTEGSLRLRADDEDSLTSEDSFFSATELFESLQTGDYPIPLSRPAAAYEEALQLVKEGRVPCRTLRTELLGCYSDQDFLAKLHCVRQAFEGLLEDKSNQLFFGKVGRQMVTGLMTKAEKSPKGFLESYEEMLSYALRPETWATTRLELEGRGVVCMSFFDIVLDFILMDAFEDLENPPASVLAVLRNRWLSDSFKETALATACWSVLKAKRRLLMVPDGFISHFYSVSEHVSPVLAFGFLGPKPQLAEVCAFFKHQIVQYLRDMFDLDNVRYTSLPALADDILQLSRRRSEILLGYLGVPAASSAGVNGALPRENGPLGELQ
UniProt Q9H8S9: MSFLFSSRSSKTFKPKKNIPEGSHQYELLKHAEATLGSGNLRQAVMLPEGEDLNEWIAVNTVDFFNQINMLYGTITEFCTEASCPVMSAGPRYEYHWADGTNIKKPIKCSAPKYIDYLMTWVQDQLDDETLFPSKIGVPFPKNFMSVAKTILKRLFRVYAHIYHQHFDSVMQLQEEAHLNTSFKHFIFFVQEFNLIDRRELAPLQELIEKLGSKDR
UniProt Q8NDA8: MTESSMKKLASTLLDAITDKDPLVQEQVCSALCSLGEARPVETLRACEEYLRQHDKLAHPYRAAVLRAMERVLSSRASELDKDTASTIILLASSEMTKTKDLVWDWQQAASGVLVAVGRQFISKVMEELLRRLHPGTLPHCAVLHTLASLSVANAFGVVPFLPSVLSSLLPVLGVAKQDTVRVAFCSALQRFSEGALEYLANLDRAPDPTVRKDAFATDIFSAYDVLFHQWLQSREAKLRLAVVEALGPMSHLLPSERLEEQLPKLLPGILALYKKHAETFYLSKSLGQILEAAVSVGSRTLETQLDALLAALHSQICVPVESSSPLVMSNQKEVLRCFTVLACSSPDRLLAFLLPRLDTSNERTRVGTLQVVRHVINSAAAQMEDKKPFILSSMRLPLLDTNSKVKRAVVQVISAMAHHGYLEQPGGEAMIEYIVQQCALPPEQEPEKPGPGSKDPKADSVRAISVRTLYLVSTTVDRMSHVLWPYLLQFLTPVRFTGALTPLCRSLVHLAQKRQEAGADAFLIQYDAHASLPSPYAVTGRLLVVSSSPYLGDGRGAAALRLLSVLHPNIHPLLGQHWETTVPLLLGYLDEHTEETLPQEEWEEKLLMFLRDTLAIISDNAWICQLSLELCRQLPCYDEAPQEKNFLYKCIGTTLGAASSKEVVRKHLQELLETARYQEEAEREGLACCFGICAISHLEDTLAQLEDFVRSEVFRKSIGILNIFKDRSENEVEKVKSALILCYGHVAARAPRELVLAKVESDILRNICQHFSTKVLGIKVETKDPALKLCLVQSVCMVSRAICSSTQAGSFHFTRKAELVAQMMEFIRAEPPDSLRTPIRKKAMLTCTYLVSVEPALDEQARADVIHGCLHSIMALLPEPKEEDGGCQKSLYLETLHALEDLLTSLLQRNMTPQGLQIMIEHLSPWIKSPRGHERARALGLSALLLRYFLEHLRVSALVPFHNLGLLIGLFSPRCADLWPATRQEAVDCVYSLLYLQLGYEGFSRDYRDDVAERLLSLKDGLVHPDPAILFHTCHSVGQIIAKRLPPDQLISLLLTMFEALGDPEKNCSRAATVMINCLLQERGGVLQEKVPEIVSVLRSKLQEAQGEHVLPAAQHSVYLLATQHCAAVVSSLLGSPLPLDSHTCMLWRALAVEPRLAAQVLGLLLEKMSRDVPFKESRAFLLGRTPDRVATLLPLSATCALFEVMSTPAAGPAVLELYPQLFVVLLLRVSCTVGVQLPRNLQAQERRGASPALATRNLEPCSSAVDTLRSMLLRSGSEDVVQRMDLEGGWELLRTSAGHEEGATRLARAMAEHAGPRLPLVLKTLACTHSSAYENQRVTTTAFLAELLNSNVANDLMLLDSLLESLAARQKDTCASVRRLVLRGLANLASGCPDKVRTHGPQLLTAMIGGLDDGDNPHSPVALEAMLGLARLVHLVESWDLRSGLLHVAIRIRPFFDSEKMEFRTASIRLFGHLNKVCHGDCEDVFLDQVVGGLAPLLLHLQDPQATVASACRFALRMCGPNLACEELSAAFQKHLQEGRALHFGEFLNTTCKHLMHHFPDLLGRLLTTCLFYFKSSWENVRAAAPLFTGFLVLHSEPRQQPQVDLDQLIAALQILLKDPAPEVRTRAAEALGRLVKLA
UniProt Q8NBR6: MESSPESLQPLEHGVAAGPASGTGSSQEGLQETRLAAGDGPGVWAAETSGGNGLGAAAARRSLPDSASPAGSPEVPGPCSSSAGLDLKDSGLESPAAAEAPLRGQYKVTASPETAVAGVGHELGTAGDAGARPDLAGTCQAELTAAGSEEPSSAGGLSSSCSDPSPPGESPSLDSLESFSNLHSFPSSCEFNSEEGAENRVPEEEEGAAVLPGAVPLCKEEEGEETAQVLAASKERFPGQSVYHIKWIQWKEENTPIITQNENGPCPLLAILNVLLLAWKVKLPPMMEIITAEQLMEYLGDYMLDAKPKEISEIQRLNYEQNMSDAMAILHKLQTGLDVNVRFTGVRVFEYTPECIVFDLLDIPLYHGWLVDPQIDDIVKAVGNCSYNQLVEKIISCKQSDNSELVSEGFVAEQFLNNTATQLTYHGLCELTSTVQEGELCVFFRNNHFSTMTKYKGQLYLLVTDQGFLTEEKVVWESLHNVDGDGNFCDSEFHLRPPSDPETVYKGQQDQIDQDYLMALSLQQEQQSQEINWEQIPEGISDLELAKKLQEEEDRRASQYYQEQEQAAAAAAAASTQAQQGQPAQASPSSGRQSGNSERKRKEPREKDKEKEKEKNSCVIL
UniProt Q6UWV2: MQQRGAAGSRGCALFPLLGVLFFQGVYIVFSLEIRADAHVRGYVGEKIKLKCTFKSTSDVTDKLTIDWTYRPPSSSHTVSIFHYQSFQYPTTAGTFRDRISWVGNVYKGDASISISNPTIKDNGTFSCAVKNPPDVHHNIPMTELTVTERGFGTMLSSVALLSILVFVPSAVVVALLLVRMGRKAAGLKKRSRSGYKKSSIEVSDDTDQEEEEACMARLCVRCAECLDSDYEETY
UniProt P16455, whole entry, looked up: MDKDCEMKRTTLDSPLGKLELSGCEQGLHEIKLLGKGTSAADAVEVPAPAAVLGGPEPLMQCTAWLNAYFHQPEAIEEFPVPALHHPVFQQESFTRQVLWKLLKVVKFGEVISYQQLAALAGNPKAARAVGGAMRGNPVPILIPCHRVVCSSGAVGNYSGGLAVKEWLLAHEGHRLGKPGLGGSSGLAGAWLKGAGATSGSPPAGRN

[2] = compound: C/C(=N\NC(=O)C1=CC(=CC=C1)S(=O)(=O)N2CCOCC2)/C3=C(C=CC(=C3)Cl)O
Method in brief: as §1

[3] = compound: C1=CC(=CC=C1C2=NC3=C(N2)C=C(C=C3)C(=O)N)OC4=CC=C(C=C4)Cl
Method in brief: as §1

[4] = compound: C1=CC2=C(C=CC(=C2)/C=C\3/C(=O)NC(=NCC4=CC=CS4)S3)N=C1
Method in brief: as §1

[5] = compound: C1=CC2=NC=CN=C2C=C1/C=C/3\C(=O)NC(=O)S3
Method in brief: as §1

[6] = compound: C1=CC=C(C=C1)C2=NC(=C(N2)C3=CC=NC=C3)C4=CC(=C(C=C4)Cl)O
Method in brief: as §1

[7] = compound: C1=CC=C2C(=C1)C3=NNC4=CC=CC(=C43)C2=O
Method in brief: as §1

[8] = compound: C1COCCN1CCN2C3=CC=CC=C3N=C2NC(=O)C4=CC(=CC=C4)[N+](=O)[O-] [IRAK-1-4 Inhibitor I]
Method in brief: as §1

[9] = compound: C1CCN(C1)C(=O)NC2=CC=CC(=C2)NC3=NC=C(C(=N3)NCCC4=CN=CN4)Br
Method in brief: as §1

[10] = compound: C1CN(CCC1(CC2=CC=C(C=C2)Cl)N)C3=NC=NC4=C3C=CN4
Method in brief: as §1

Target	log2 fold change [1]	log2 fold change [2]	log2 fold change [3]	log2 fold change [4]	log2 fold change [5]	log2 fold change [6]	log2 fold change [7]	log2 fold change [8]	log2 fold change [9]	log2 fold change [10]
MRPL2 (UniProt Q5T653)	inactive: -0.065	inactive: 0.1	inactive: 0.005	inactive: 0.002	inactive: 0.02	inactive: 0.012	inactive: 0.004	inactive: 0.025	–	–
MLXIPL (UniProt Q9NP71)	inactive: 0.034	–	inactive: 0.031	–	–	inactive: -0.256	–	inactive: 0.127	–	–
MR1 (UniProt Q95460)	inactive: 0.046	inactive: 0.1	inactive: -0.009	inactive: -0.057	inactive: 0.091	–	inactive: -0.06	–	inactive: 0.006	inactive: -0.057
MINDY4 (UniProt Q4G0A6)	–	–	–	–	inactive: -0.025	inactive: 0.023	–	inactive: -0.053	–	–
MMACHC (UniProt Q9Y4U1)	–	inactive: -0.026	–	inactive: 0.038	inactive: 0.05	inactive: -0.033	inactive: 0.108	inactive: 0.05	–	–
MKKS (UniProt Q9HB66)	inactive: 0.021	inactive: -0.095	inactive: 0.118	inactive: 0.054	–	inactive: -0.009	inactive: 0.008	inactive: -0.008	inactive: -0.014	inactive: 0.087
MPHOSPH9 (UniProt Q99550)	inactive: -0.051	inactive: 0.072	inactive: 0.057	inactive: -0.445	inactive: 0.083	–	inactive: 0.118	–	inactive: -0.014	inactive: 0.026
MRAS (UniProt O14807)	inactive: 0.063	inactive: 0.023	inactive: 0.019	inactive: -0.006	inactive: -0.179	–	inactive: 0.072	–	inactive: 0.051	inactive: 0.014
MIGA2 (UniProt Q7L4E1)	inactive: -0.013	–	inactive: -0.095	–	–	inactive: -0.033	–	inactive: 0.063	inactive: 0.061	inactive: -0.204
MKNK2 (UniProt Q9HBH9)	inactive: 0.109	inactive: 0.063	inactive: -0.131	inactive: -0.014	–	inactive: -0.051	inactive: -0.05	inactive: 0.069	inactive: 0.147	inactive: 0.063
MOB1A (UniProt Q9H8S9)	–	inactive: -0.116	–	inactive: -0.072	–	–	inactive: -0.082	–	inactive: -0.084	inactive: 0
MGRN1 isoform 2 (UniProt O60291)	inactive: 0.067	inactive: -0.066	inactive: -0.1	inactive: -0.025	inactive: 0.073	–	inactive: -0.066	–	inactive: -0.003	inactive: -0.004
MILR1 (UniProt Q7Z6M3)	inactive: 0.115	inactive: 0.147	inactive: 0.184	inactive: -0.132	–	inactive: -0.03	inactive: 0.043	inactive: 0.036	inactive: -0.043	inactive: 0.087
MGAT1 (UniProt P26572)	inactive: -0.065	inactive: 0.076	inactive: -0.031	inactive: 0.013	–	inactive: 0.035	inactive: -0.005	inactive: -0.007	inactive: 0.013	inactive: 0.042
MKRN3 (UniProt Q13064)	inactive: -0.026	inactive: 0.113	inactive: 0.207	inactive: 0.04	inactive: -0.099	inactive: 0	inactive: -0.044	inactive: 0.027	–	–
MIIP (UniProt Q5JXC2)	inactive: 0.197	–	inactive: 0	–	inactive: -0.103	inactive: 0.091	–	inactive: -0.085	–	–
MLF1 isoform 3 (UniProt P58340)	–	inactive: 0.029	–	inactive: 0.024	–	–	inactive: -0.036	–	–	–

Target	log2 fold change [1]	log2 fold change [2]	log2 fold change [3]	log2 fold change [4]	log2 fold change [5]	log2 fold change [6]	log2 fold change [7]	log2 fold change [8]	log2 fold change [9]	log2 fold change [10]
MICA (UniProt Q29983)	–	–	–	–	inactive: 0.018	–	–	–	–	–
MITF (UniProt O75030)	inactive: -0.032	inactive: 0.029	inactive: 0.019	inactive: -0.029	–	inactive: 0.023	inactive: 0.13	inactive: -0.018	inactive: 0.083	inactive: 0.029
MLYCD (UniProt O95822)	inactive: 0	–	inactive: -0.028	–	inactive: -0.028	inactive: 0.075	–	inactive: -0.016	inactive: -0.094	inactive: 0.147
MROH1 (UniProt Q8NDA8)	–	–	–	–	inactive: 0.002	inactive: -0.028	–	inactive: 0.088	inactive: -0.016	inactive: 0.043
MRPL22 (UniProt Q9NWU5)	active: -0.424	–	inactive: -0.074	–	–	inactive: 0.006	–	inactive: -0.01	–	–
MME (UniProt P08473)	inactive: 0	–	inactive: 0.052	–	inactive: -0.067	inactive: 0.011	–	inactive: 0.095	–	–
MIPOL1 (UniProt Q8TD10)	inactive: -0.063	–	inactive: -0.156	–	inactive: 0.139	inactive: -0.001	–	inactive: 0.049	inactive: -0.155	inactive: 0.184
MINDY2 (UniProt Q8NBR6)	–	–	–	–	inactive: -0.002	inactive: 0.002	–	inactive: 0	inactive: 0.103	inactive: 0.089
MKKS (UniProt Q9NPJ1)	–	inactive: 0.154	–	inactive: -0.041	inactive: 0.023	–	inactive: -0.077	–	inactive: 0.069	inactive: -0.085
MPZL3 (UniProt Q6UWV2)	–	–	–	–	–	inactive: -0.017	–	inactive: 0.05	–	–
MPDZ (UniProt O75970)	inactive: -0.017	inactive: -0.061	inactive: -0.095	inactive: -0.273	–	inactive: -0.091	inactive: 0.004	inactive: 0.149	inactive: -0.099	inactive: 0.108
MICAL2 (UniProt O94851)	inactive: -0.07	inactive: 0.104	inactive: -0.14	inactive: 0.02	inactive: -0.205	inactive: 0.108	inactive: 0.01	inactive: -0.034	–	–
MMS22L (UniProt Q6ZRQ5)	inactive: 0.067	inactive: 0.032	inactive: 0	inactive: -0.093	inactive: 0.037	–	inactive: 0.064	–	inactive: 0.019	inactive: -0.021
MIDEAS, A0A1C7CYX1	inactive: -0.012	–	inactive: 0.062	–	–	inactive: 0.039	–	inactive: 0.086	–	–
MGMT (UniProt P16455)	–	–	–	–	–	inactive: -0.229	–	inactive: -0.038	–	–
MLKL (UniProt Q8NB16)	inactive: -0.012	–	inactive: -0.22	–	inactive: -0.131	inactive: -0.039	–	inactive: 0.03	inactive: -0.118	inactive: -0.2

2 neighbouring entries out of the list so far, for reference:
Target	log2 fold change [1]	log2 fold change [2]	log2 fold change [3]	log2 fold change [4]	log2 fold change [5]	log2 fold change [6]	log2 fold change [7]	log2 fold change [8]	log2 fold change [9]	log2 fold change [10]
MILR1 (UniProt Q7Z6M3)	inactive: 0.115	inactive: 0.147	inactive: 0.184	inactive: -0.132	–	inactive: -0.03	inactive: 0.043	inactive: 0.036	inactive: -0.043	inactive: 0.087
MGAT1 (UniProt P26572)	inactive: -0.065	inactive: 0.076	inactive: -0.031	inactive: 0.013	–	inactive: 0.035	inactive: -0.005	inactive: -0.007	inactive: 0.013	inactive: 0.042

Reference: the supplement of paper PMC10849652
